# Results: article doi:10.1101/2024.04.26.591237
# Chains of the proteins cited; added tags and fusions are not shown.
# UniProt O35889: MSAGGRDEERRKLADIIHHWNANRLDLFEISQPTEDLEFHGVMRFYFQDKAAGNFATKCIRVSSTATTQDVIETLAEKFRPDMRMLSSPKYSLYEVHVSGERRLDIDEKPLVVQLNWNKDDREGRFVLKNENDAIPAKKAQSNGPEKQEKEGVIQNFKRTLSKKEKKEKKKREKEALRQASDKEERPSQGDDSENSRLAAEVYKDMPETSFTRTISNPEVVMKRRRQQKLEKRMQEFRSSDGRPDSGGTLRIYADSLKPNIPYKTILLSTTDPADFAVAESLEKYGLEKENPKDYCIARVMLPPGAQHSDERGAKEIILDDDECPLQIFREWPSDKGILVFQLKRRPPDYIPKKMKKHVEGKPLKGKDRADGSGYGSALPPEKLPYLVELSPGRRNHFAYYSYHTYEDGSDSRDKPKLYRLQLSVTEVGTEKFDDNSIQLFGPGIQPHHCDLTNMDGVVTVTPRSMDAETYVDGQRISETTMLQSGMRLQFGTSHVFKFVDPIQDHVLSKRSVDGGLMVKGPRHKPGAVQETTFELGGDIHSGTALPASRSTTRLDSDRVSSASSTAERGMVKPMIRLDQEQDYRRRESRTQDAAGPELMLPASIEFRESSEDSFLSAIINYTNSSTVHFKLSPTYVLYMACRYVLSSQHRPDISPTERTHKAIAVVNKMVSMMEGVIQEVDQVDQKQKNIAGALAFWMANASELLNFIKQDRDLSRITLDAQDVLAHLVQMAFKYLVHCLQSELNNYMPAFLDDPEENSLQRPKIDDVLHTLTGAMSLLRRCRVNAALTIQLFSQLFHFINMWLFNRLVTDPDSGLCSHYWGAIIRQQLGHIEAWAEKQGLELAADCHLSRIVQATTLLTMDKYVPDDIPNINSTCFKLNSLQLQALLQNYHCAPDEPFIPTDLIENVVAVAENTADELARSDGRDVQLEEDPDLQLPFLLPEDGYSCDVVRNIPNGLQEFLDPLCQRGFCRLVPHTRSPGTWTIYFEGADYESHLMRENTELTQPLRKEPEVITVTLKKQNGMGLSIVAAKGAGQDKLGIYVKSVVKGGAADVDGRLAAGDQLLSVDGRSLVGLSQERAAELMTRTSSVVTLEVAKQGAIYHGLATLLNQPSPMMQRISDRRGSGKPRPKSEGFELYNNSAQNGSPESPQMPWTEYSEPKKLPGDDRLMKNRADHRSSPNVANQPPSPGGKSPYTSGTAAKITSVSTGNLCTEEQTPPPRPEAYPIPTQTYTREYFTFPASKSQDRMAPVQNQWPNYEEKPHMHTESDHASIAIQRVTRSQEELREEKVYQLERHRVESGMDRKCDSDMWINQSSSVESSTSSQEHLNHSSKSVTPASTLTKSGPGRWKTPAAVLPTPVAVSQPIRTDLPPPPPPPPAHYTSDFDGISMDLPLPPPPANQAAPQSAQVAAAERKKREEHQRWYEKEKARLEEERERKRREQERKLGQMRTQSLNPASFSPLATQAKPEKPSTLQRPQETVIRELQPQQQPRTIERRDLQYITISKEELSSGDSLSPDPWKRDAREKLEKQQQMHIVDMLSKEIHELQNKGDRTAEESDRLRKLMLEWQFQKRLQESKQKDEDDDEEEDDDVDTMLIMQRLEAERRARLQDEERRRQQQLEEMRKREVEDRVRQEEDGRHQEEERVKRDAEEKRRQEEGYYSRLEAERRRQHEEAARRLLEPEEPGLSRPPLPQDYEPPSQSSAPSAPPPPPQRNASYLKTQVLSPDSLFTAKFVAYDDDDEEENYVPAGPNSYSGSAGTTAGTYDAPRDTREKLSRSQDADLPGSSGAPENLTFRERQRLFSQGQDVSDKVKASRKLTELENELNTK
# UniProt P35221: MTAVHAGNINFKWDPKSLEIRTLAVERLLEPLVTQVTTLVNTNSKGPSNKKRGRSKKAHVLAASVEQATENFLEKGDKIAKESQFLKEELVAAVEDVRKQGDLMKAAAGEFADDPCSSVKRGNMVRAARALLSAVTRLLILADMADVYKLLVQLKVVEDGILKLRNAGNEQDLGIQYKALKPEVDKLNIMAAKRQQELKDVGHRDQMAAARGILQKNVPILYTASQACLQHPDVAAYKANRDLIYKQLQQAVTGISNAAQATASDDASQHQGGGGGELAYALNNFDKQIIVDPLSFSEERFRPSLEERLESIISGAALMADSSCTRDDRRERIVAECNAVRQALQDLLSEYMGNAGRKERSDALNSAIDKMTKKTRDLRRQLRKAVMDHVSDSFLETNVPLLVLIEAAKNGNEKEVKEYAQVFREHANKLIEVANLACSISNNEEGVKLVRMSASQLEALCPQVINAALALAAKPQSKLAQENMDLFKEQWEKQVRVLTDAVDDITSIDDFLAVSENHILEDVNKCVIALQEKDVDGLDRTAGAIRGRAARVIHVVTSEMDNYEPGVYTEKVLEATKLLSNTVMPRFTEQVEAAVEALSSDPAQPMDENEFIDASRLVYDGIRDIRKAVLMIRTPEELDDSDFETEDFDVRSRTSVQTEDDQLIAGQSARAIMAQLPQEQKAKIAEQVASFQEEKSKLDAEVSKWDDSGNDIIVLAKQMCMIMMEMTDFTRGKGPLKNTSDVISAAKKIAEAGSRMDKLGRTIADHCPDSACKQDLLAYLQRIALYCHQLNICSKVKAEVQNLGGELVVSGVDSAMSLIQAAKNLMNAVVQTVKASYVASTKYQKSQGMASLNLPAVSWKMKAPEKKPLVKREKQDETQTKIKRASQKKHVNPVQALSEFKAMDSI
# No constants are given. Whether binding was seen depends on the method and setting. In cells and extracts the contact can be indirect. Some results given as binding are weak or reduced against the parent protein; the word gives no strength.
# Biological target: EGFP-afadin (rat l-afadin, amino acids 1-1828) (rat) (UniProt O35889)
# Test: co-IP
substance,measurement,value
α-catenin (from UniProt P35221 1-906),binding,binds
